Reference: paper PMC7010728
These are yes or no findings as the source states them, for the method shown. Binding seen in cells or lysates may run through a third protein. Here binding means that the protein was enriched with, or labelled near, the bait; the list need not be complete.

Chains of the proteins cited; added tags and fusions are not shown.
UniProt Q9Y4E1: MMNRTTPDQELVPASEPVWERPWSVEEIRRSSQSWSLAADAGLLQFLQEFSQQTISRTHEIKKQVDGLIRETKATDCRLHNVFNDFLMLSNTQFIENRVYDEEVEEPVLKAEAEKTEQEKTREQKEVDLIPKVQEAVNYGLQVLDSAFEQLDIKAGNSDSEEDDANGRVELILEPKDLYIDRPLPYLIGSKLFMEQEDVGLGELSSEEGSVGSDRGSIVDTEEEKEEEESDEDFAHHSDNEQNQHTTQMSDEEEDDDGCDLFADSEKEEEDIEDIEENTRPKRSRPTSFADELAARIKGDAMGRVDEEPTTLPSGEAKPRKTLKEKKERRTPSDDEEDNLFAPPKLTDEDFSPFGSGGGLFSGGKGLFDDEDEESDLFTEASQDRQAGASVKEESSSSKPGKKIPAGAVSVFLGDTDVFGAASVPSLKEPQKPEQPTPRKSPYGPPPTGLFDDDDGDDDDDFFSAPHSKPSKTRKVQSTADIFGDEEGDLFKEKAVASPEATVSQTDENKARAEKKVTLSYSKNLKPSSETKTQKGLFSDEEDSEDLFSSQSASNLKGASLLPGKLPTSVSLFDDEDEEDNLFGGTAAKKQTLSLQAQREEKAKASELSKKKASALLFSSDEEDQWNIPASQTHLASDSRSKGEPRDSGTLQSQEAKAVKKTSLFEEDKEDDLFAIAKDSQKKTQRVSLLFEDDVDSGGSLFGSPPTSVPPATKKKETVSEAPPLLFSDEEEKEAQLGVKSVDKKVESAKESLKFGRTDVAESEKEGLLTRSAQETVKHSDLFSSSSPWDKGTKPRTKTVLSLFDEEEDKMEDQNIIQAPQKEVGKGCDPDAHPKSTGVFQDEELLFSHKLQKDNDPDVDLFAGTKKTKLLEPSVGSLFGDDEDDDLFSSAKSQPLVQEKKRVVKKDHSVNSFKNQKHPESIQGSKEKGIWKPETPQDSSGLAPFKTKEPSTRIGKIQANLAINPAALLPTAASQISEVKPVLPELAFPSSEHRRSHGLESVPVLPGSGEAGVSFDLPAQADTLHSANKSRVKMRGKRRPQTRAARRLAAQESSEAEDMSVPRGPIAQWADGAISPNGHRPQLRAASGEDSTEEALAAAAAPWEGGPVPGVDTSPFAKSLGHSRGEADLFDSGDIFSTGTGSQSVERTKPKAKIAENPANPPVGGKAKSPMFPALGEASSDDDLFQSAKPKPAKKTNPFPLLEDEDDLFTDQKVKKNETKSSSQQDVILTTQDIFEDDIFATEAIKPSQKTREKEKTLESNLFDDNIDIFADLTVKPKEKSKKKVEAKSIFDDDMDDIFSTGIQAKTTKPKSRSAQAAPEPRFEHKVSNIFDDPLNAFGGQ
UniProt O60826: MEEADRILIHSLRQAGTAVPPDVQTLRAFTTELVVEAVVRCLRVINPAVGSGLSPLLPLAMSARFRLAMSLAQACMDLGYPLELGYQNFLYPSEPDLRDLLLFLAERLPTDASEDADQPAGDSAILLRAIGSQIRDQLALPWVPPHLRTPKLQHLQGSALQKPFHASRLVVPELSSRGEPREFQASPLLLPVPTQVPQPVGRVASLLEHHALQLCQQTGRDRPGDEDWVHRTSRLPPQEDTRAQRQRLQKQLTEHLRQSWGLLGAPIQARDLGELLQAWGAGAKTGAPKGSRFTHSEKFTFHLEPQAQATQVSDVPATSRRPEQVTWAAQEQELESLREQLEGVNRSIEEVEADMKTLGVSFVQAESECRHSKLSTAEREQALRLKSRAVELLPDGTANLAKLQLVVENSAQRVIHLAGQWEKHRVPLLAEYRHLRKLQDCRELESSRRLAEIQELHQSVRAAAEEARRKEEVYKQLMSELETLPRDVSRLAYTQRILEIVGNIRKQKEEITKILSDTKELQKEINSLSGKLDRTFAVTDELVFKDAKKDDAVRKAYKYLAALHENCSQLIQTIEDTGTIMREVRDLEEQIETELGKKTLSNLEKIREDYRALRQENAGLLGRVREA
UniProt Q567U6: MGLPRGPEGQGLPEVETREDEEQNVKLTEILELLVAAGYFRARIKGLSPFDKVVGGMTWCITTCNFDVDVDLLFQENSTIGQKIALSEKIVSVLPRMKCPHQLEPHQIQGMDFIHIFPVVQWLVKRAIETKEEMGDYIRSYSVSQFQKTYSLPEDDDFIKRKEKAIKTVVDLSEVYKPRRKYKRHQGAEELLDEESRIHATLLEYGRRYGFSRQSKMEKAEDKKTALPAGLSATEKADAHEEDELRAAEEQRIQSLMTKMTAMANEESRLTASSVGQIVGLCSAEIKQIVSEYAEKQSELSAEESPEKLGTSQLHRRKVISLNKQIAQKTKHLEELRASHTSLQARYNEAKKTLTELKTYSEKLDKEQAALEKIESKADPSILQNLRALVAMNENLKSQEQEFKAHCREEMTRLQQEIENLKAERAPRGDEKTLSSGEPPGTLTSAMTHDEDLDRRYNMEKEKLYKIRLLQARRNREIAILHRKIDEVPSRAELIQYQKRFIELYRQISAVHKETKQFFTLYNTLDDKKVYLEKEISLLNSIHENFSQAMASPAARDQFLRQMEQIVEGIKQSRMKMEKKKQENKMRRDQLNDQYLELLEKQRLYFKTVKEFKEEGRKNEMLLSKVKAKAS

Target: FLAG-tagged WASHC2C (UniProt Q9Y4E1)
Assay: affinity purification with mass spectrometry; anti-FLAG antibody on protein A/G magnetic beads, lysates of mock and HCMV-infected (72 hpi) fibroblasts transfected with FLAG-WASHC2C; 1 h at 4 °C; lysis buffer 20 mM HEPES-KOH pH 7.4, 110 mM potassium acetate, 0.1% Tween-20, 0.2% Triton X-100; co-isolated proteins quantified by targeted MS (PRM), normalised to WASHC2C peptides

binding	Substance
binds	coiled-coil domain-containing protein 22 (from UniProt O60826 1-627)
binds	coiled-coil domain-containing protein 93 (from UniProt Q567U6 1-631)
